The list is a part of this screen's results and no random one: it is rich in T/C values a quarter to a half above the control, in often repeated tests (any T/C) and in doses without a T/C. Further doses and runs are listed elsewhere. T/C: endpoint of the treated group in % of that of the vehicle group. Some doses have a count of surviving animals in place of a T/C: the source files T/C as zero there, which appears to mark a toxic dose or a test without result, not a measured value. Some doses without a T/C left all or most animals alive at the check, yet need not have been tolerated: survival well below the control is almost never listed, so the zero probably covers shortened survival too. Survivors were counted at the toxicity check, usually on the fifth day, unless a day is given; later deaths do not show. Schedules are NCI's codes, read here as Q, the interval in days (D) or hours (H), X, the number of doses. Some doses were run more than once; the values are given in rising order. Where survival is the endpoint, the PubChem record calls one and a half times the control and up active, and a quarter to a half above the control has no call in these data; cut-offs in other NCI protocols can differ. Brackets with × say how often a value occurs here. Some T/C values carry the count of animals alive at the toxicity check (mostly the fifth day); where none is given, no animal had died by that day.
System: L1210 leukemia ip in BDF1 mice, survival T/C
Assay: NCI In Vivo Anticancer Drug Screen. Data for tumor model L1210 Leukemia (intraperitoneal) in B6D2F1 (BDF1) mice
Settings: T/C endpoint: mean survival time, higher T/C = longer survival
[1] = dose: 25.0 mg/kg/injection, schedule: Q01DX009 (ip), vehicle: saline with Tween-80
[2] = dose: 50.0 mg/kg/injection, schedule: Q01DX009 (ip), vehicle: saline with Tween-80
[3] = dose: 100.0 mg/kg/injection, schedule: Q01DX009 (ip), vehicle: saline with Tween-80
[4] = dose: 200.0 mg/kg/injection, schedule: Q01DX009 (ip), vehicle: saline with Tween-80
[5] = dose: 50.0 mg/kg/injection, schedule: Q01DX009 (ip), vehicle: saline
[6] = dose: 200.0 mg/kg/injection, schedule: Q01DX009 (ip), vehicle: saline

With `COc1cccc2c1C(=O)c1c(O)c3c(c(O)c1C2=O)C[C@@](O)(C(=O)COC(=O)Cc1ccccc1)C[C@@H]3OC1CC(N)C(O)C(C)O1` (stereo not given in full) the T/C (dose: 0.57 mg/kg/injection, schedule: Q01DX009 (ip), vehicle: saline with Tween-80) was 131 % of control, the T/C (dose: 0.85 mg/kg/injection, schedule: Q01DX009 (ip), vehicle: saline with Tween-80) was 140 % of control and the T/C (dose: 4.4 mg/kg/injection, schedule: Q01DX009 (ip), vehicle: saline with Tween-80) was 144 % of control.
For `O=C(/C=C/c1ccccc1)NC(=S)Nc1ccccc1C(F)(F)F`, the T/C [1] was 87, 96, 100 % of control, the survivor count [1] was 3 of 3 and the T/C [2] was 87, 90, 91 % of control. The survivor count [2] was 2 of 3, the T/C [3] was 90, 90 [2 of 3 alive], 91, 95, 96 % of control and the survivor count [3] was 6 of 6. The survivor count (dose: 100.0 mg/kg/injection, schedule: Q04DX002 (ip), vehicle: saline with Tween-80) was 3 of 3, the T/C [4] was 89 % of control (2×) and the survivor count [4] was 2 of 3 and 5 of 6. The survivor count (dose: 400.0 mg/kg/injection, schedule: Q01DX009 (ip), vehicle: saline with Tween-80) was 0 of 3.
`O=C(N[C@@H](c1ccccc1)[C@H](N=Cc1ccccc1)c1ccccc1)c1ccccc1` was tested, and the survivor count [5] was 6 of 6, the survivor count [6] was 6 of 6 and the survivor count (dose: 200.0 mg/kg/injection, schedule: Q04DX003 (ip), vehicle: saline) was 6 of 6.
In the case of `CCC(O)Cc1c[nH]c(=O)[nH]c1=O` (stereo not given), the survivor count [6] was 3 of 6 and the survivor count (dose: 400.0 mg/kg/injection, schedule: Q04DX003 (ip), vehicle: saline with Tween-80) was 0 of 6.
In the case of `CCn1c(C)[n+](CC)c2ccc(C(C)=O)cc21`, the survivor count (dose: 200.0 mg/kg/injection, schedule: Q01DX001 (ip), vehicle: saline with Tween-80) was 0 of 6 and the survivor count (dose: 400.0 mg/kg/injection, schedule: Q01DX001 (ip), vehicle: saline with Tween-80) was 0 of 6.
`OCC1OC(c2[nH]nc3c([Se])ncnc23)C(O)C1O` (stereo not given) was tested, and the survivor count (dose: 12.5 mg/kg/injection, schedule: Q01DX005 (ip), vehicle: saline) was 5 of 6, the survivor count (dose: 25.0 mg/kg/injection, schedule: Q01DX005 (ip), vehicle: saline) was 2 of 6 and the survivor count (dose: 25.0 mg/kg/injection, schedule: Q01DX009 (ip), vehicle: saline) was 4 of 6. For the same compound, the survivor count (dose: 50.0 mg/kg/injection, schedule: Q01DX005 (ip), vehicle: saline) was 0 of 6 and the survivor count [5] was 0 of 6.

From PubChem BioAssay AID248 (DTP/NCI, 2004)
